Paper PMC4317163
No constants are given. Whether binding was seen depends on the method and setting. Binding seen in cells or lysates may run through a third protein. These calls come from enrichment with a bait or labelling near it, and not all partners need be listed. Where a sequence is shown, tags or fusion partners need not be part of it.

Sequences of proteins named here, by UniProt entry; tags and fusion partners are left off. A change or cut given only in a name is not applied to a line headed by its entry.
UniProt Q9VHG6: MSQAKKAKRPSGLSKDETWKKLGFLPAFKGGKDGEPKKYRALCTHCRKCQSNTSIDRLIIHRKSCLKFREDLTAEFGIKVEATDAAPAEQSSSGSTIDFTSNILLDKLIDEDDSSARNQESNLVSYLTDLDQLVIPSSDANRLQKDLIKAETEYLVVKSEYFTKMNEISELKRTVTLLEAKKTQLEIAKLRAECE

T1: FLAG-CP190 (Drosophila) (UniProt Q24478)
T1 sequence: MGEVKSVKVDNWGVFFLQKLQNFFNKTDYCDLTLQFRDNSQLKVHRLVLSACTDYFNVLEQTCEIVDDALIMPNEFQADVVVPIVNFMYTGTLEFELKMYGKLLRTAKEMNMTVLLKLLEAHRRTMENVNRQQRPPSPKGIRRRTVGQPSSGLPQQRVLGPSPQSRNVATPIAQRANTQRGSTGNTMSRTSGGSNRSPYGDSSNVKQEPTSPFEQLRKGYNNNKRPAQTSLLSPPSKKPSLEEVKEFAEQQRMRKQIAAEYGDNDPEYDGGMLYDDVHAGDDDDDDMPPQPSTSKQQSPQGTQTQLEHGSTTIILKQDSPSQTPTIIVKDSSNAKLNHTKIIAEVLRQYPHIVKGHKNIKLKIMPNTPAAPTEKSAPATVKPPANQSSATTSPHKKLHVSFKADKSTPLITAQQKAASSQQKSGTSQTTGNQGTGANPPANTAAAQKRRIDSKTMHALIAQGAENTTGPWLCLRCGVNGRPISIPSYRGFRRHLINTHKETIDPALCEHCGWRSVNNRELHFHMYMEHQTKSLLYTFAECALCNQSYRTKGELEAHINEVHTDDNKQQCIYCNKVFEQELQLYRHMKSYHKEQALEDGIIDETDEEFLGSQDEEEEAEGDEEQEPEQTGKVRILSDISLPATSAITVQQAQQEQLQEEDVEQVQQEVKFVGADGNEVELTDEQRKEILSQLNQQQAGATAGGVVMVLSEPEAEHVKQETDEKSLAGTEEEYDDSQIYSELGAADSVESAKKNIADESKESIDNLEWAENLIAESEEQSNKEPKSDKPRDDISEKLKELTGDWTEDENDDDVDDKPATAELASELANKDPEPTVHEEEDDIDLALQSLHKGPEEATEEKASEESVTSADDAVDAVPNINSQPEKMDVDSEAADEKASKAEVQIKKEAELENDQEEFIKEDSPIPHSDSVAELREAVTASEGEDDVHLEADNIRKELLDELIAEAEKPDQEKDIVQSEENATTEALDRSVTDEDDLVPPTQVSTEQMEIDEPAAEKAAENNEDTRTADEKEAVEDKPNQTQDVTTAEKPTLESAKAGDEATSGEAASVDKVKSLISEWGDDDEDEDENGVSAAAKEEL

B1: Su(Hw) (protein, UniProt P08970 1-941)
chain: MSASKEGKEKKGKLLGVENISPPKDKRPATRMKLLNDVGAGEDSEASTTTTTSRTPSNKQEKRGSVAGSRIKILNEEILGTPKTEKRGATKSTAPAASTVKILNEKKTPSATVTAVETTKIKTSPSKRKKMEHYVLQAVKSENTKADTTVTVVTEEDDTIDFILADDEEVVPGRIENNNGQEIVVTEDDEDLGEDGDEDGEDSSGKGNSSQTKIKEIVEHVCGKCYKTFRRVQSLKKHLEFCRYDSGYHLRKADMLKNLEKIEKDAVVMEKKDICFCCSESYDTFHLGHINCPDCPKSFKTQTSYERHIFITHSEFSDFPCSICNANLRSEALLALHEEQHKSRGKPYACKICGKDFTRSYHLKRHQKYSSCSSNETDTMSCKVCDRVFYRLDNLRSHLKQHLGTQVVKKPEYMCHTCKNCFYSLSTLNIHIRTHTGEKPFDCDLCDKKFSALVALKKHRRYHTGEKPYSCTVCNQAFAVKEVLNRHMKRHTGERPHKCDECGKSFIQATQLRTHSKTHIRPFPCEQCDEKFKTEKQLERHVKTHSRTKRPVFSCAECKRNFRTPALLKEHMDEGKHSPKQQRSSMRSAVKIMERTDCAICDKNFDSSDTLRRHIRTVHECDPDDIFGVEPHPSKRAKKDIESEEVVPVALNTSAGSLISSQTDGNGVVVREFLVDEGDGAAQTITLENETYTILPLDGAIEGEQLTDEAGVKPEAKKEEAQVSPVVKKEQRKSLAASLAAAIADNLEESCSEDDFSGEILTEEDIKLKENVGKLIDMLVDPPILKKYGWPNAPEETVLCKVIENCGHDLTKGGENYAELDYGSRMREYCKLLFTVVIHNDSIKSLLNNFPIDDVIEYVLGDEDQDEGGLDKDNESHSGDEEAVSVTGETKTNEIREKPEKKEVSAKSEKKEIVGKAVDKDNSEEVVRENKKKPVGEQEKA
B2: ZIPIC (endogenous, S2 cells) (protein, UniProt Q9VAB8 1-457)
chain: MNCCICQFSVRVPKDIHTDTVGHPPVLISELVLQCTRGTNYVLTEESSTICKKCCEKLARYHKSIQIARKLRGEILELIHSPYMSKDHKQTSYKEDDLDRETTISKFDGNIEEAQQQDEEEQELESVGTTVTLVGPAGIVEEVAEEEHTFIIKQSEEEDEFHSVDLELDIDNEIIINEEEAHEVEEVAHEIEEVAHEIEEEDLLPHDKQEAQEEDFFKEDTMSDFDEHLDGAIEYIISDGEDQEQDNESSGEYTVNIQCPSCPEKFSSRRAYNVHTKREHFPGYVCDQCGKTLQSYSGFIGHLQNHEPVKQFACPVCPERFSRKFRLKHHMAWHSGETPYQCDVCSKRFVHKVALYKHKMIHDSETKRLECQVCGFKTRTKAHLERHMRSHTGDKPFACPVCNKRFSQMYNMKAHLREHESPGTNRHRRFHCSKCTHTFINEQNYDAHVQRDDCTPV
B3: CTCF (endogenous, S2 cells) (protein, UniProt Q9VS55 1-818)
chain: MPRRTKKDEDPEDLQTFLNNFHKEIEGNSDEKVVNTILEAISAEAIDLDENGAEAGGSKPMEEAEADLDHAEEAEEEEEDDEDKYFIDDEGNCYIKTTPKKQKELQKKLKQAAAKPGKATRSVVSTATNKSINLRPAKSTPKATTSKPPPEPKAISVRPARAAAAKAKQSAMPPPPALVVKVPAPRGRPRKNPVIPKPEPMDLERELEELVDEPDISSMVTELSDYTVDEAAVEAATATLTPNEAEVYEFEDNATTEDENADKKDVDFVLSNKEVKLKTASSTSQNSNASGHKYSCPHCPYTASKKFLITRHSRSHDVEPSFKCSICERSFRSNVGLQNHINTHMGNKPHKCKLCESAFTTSGELVRHTRYKHTKEKPHKCTECTYASVELTKLRRHMTCHTGERPYQCPHCTYASQDMFKLKRHMVIHTGEKKYQCDICKSRFTQSNSLKAHKLIHSVVDKPVFQCNYCPTTCGRKADLRVHIKHMHTSDVPMTCRRCGQQLPDRYQYKLHVKSHEGEKCYSCKLCSYASVTQRHLASHMLIHLDEKPFHCDQCPQAFRQRQLLRRHMNLVHNEEYQPPEPREKLHKCPSCPREFTHKGNLMRHMETHDDSANAREKRRRLKLGRNVRLQKDGTVITLIKDQYVDMDRDQEENEEDDNPESYDLAEIEPENSEAEDADDDVETIVSDPIRQRIKPAPIIINKQARLAASEKQPMIINQRLRSQRGTKTFHIKEEPDNSDFTVEWQGDDGEVMVVELVNGDEEVLVKHEPSANSKISAKNCFGFEDDDDYEEYGDGENEVDGASQEFLQLMDMIEQDS
B4: Pita (endogenous, S2 cells) (protein, UniProt Q95RQ8 1-683)
chain: MAAKLEVREAMLTEKRVCRFCLTEQKLASIFEENPRVKTTANLPLQIMAITAIEVYAGDGMPGHICLECRLLFEHCYRFKQMCKRAETLLRQYPLTGNWPSPLEKPRAPMTMVASKKLLVVPAKTAEPSETPKKLLNTMAKSSSQVIIEDVQVLESAMVTPRTVAGSSPVPRRSHAYELKVDNNQELSMDDVQSMLEDMASELEKEFPDIPQKASPVKPKVLNKSSIRILNKGPAAPVEPRLATPKVKRDDSGNVAIVTEVLDSDLPLDDQDDPTKNAEKVATDVFPCPDCERSFPLQQLLEIHRLNHTRSRSFQCLLCEKSFFSKYDLAKHNFVHTGERPFKCAICSKAFTRKALLHRHERTHTDVPKFICVYCEKPFLSRQEMEKHAERHQKKRPFQCGVCTKSFAFKQGLERHETVHSTNLPFPCQHCERSFSTASKLARHLVAHAGKRAYPCKYCHKSYMLSHHLSRHLRTHTQTSDASFVCSECKVSYSNYNDLLDHALIHATASLKCPMCRKQIEDIDSVESHMDQHKQSERHACEFCDHIFLTQKCLQRHIEDDHVVEMEPYQNEFEDDGEGEGGVDEKEEHLDDFEDMDNVKQEEFVTEYLEDDALYEDHLDDSDESFTPPPPKQRKTNPPKDAQQSVRQTRSRDAQRITQKTGKNEGKPHHKLERNLKNRRSAK

target: T1, FLAG-CP190 (Drosophila); assay: affinity purification with mass spectrometry; FLAG-CP190 purified from extract of stably transfected S2 cells with or without CuSO4 induction; proteins enriched more than threefold in the induced sample counted as interacting

binding, binds:
Map60 (CP60) (Drosophila (endogenous in S2 cells)), Chromator (Drosophila (endogenous in S2 cells)), Ibf2 (from UniProt Q9VHG6), Ibf1 (Drosophila (endogenous in S2 cells)), B1, B2, B3, B4
